Assay results from paper PMC6993235.
These are yes or no findings as the source states them, for the method shown. Binding seen in cells or lysates may run through a third protein. Some results given as binding are weak or reduced against the parent protein; the word gives no strength.

Sequences of proteins named here, by UniProt entry; tags and fusion partners are left off.
UniProt P09936: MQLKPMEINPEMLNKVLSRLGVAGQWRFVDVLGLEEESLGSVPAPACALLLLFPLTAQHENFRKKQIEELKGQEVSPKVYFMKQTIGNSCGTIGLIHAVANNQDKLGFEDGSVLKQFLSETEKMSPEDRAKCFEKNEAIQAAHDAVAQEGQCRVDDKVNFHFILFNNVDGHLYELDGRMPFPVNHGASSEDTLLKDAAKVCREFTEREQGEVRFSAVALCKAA

Key:
[1] = target: myc-his-UCH-L1, expressed in MCF-7/AdrR cells (UniProt P09936); experiment: co-IP; MCF-7/AdrR cells transfected with myc-his-UCH-L1; RIPA lysis; IP with anti-Myc; endogenous EGFR detected by western blot
GST-UCH-L1 = GST-UCH-L1 (UniProt P09936); experiment: pull-down; purified GST-UCH-L1 from bacteria on glutathione-sepharose 4B beads incubated with lysate of HEK293T cells transfected with Flag-EGFR, 4 hours at 4 C; washed four times with GST binding buffer; immunoblot; only the target purified
[2] = target: myc-his-UCH-L1 (Ubiquitin carboxyl terminal hydrolase-L1), expressed in HEK293T cells (UniProt P09936); experiment: co-IP; HEK293T cells co-transfected with Flag-EGFR and myc-his-UCH-L1; RIPA lysis; IP with anti-Flag or anti-Myc and protein A/G agarose at 4 C overnight; western blot

binding [1] | binding (GST-UCH-L1) | binding [2] | Substance
binds |  |  | endogenous EGFR of MCF-7/AdrR cells (from UniProt P00533 25-1210) (receptor)
 | binds | binds | Flag-EGFR, expressed in HEK293T cells (from UniProt P00533 25-1210) (receptor)
